# Data published in PubChem BioAssay (NCATS).
# By UniProt entry, the sequences of proteins in these tests, tags left out. Where a name states a change or a piece, a line headed by the entry shows the natural chain unless it says otherwise.
# UniProt P50135: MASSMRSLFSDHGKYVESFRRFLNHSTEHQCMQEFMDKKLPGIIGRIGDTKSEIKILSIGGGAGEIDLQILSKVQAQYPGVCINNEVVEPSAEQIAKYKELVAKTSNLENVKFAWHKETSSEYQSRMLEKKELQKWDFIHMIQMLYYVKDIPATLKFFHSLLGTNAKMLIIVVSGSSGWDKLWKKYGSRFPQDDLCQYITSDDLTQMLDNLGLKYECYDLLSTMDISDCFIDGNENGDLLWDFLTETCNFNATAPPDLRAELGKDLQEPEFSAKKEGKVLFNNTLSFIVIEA
# Values joined by “and” are separate entries in the source; they are usually repeats but may differ in a detail not shown here. Equal values may be shown once. Some of the results follow. Further columns of the screen follow, without active or inactive calls. Compounds called inactive in the main read-out are mostly missing here. For part of these data: Words in brackets tell the shape of the fitted curve; partial curves, single points and poor fits give uncertain potencies.
# Key:
# [1] = Validation of Assay for Modulators of Lamin A Splicing (AID 1459); conditions: Lamin A splicing dual RFP/GFP fluorescence reporter, ratio
# Outline: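 Splicing correction is reported by an EGFP-containing lamin A minigene in stably transfected S3 HeLa cells, while DsRed2 controls for viability and nonspecific signal. Cells are exposed to compounds for 48 hrs before the GFP over RFP ratio is taken.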
# [2] = qHTS Assay for Modulators of Human Peripheral Myelin Protein 22 (PMP22) Expression/Activity (AID 1967); conditions: Cell-based PMP22 reporter, dual-color luciferase ratio
# Outline: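 Quantitative HTS in a mouse Schwann cell line expressing dual click beetle luciferases: Pmp22 promoter (green) and control EF-alpha promoter (red). After 24h treatment, corrected green/red signal ratio gave %Activity relative to untreated cells.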
# [3] = qHTS Validation Assay to Find Inhibitors of Chronic Active B-Cell Receptor Signaling (AID 485345); conditions: ABC-DLBCL cells, chronic BCR signaling reporter
# Outline: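 Read-out: ratio of filter-corrected green (IkappaBalpha fusion) to red (native) luciferase signal in doxycycline-induced TMD8 cells after 4 h at 37C. Titration spanned 46 uM–3 nM; Data were normalised to basal cells and 10 uM MG-132 wells.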
# [4] = Nrf2 qHTS screen for inhibitors: Validation (AID 493153); conditions: A549 ARE-Fluc reporter, 18-24 h; AC50: CellTiter-Fluor fluorescence read, measured here: cytotoxicity CellTiter-Fluor AC50; viability change: measured here: cytotoxicity max response
# Outline: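 Concentration-response test in A549 ARE_Fluc reporter cells (5% FBS OPTI-MEM), compound exposure 18-24 h at 37°C, 5% CO2. Cell viability measured first by CellTiter-Fluor fluorescence; ARE-driven luciferase luminescence then measured as Nrf2 activity.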
# [5] = qHTS assay for small molecule antagonists of peroxisome proliferator-activated receptor delta signaling (AID 588535); conditions: HEK293T PPARd-UAS-bla, beta-lactamase FRET ratio, 18 h; 460 nm channel;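 note: cells co-treated with a PPAR-delta agonist as stimulator during compound exposure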
# Outline: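 Antagonist-mode qHTS using GeneBLAzer PPAR-delta-UAS-bla HEK293T cells; compound exposure 18 hrs at 37 C over a titration. Ratiometric CCF4 fluorescence at 460/530 nm; concentration-response points fitted to the Hill equation.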
# [6] = qHTS Assay for Lipid Storage Modulators (AID 1519); conditions: Drosophila S3 cells, BODIPY lipid droplet/cell ratio, laser cytometry, cells loaded with oleic acid
# Outline: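 Cells seeded at 5,000 per well were treated with compounds over a concentration series and loaded with oleic acid (400 uM, as added). Lipid droplet fluorescence (488 nm excitation, 500-530 nm channel) was read by laser-scanning cytometry and normalized to 20 uM Triacsin C.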
# [7] = qHTS Assay for Inhibitors of PDE-IV (AID 607); conditions: HEK293 ACTOne CNG channel cells, membrane potential fluorescence; measured here: parental cell counter-screen
# Outline: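 Cell-based read-out of cAMP via a modified cyclic nucleotide-gated channel and membrane potential dye (535/590 nm) in HEK293 cells expressing PDE4 endogenously. Compounds tested up to 22.9 uM final; 100 uM RO 20-1724 reference.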
# [8] = target: Histamine N-methyltransferase (Homo sapiens) (UniProt P50135); assay: Confirmatory Screen for Target Class Profiling of Small Molecule Inhibitors of Methyltransferases (AID 1745852); conditions: MTase-Glo luminescence, SAH detection, recombinant enzyme; measured here: HNMT inhibition potency
# [9] = qHTS for identification of novel therapeutic agents for treatment of microphthalmiaassociated transcription factor (MiT) renal cell carcinoma (RCC) (AID 1963991); conditions: CellTiter-Glo, 48 h; for z-score: stronger effect = lower value
# Outline: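 Curves over 11 concentrations were fitted to CellTiter-Glo luminescence, scaled between empty wells (0%) and DMSO (100%) viability. Cells were UOK109, UOK124 and UOK145 TFE3-fusion RCC lines at 500/well, exposed 48 hours at 37 C.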
# [10] = measured here: red reporter channel AC50, EF-alpha promoter control reporter in MSC80 mouse Schwann cells
# [11] = measured here: CBG/CBR ratio read-out
# [12] = measured here: CBR control luciferase (viability counter)
# [13] = measured here: cell count channel max response
# [14] = measured here: lipid channel max response
# [15] = measured here: cell number channel AC50
# [16] = measured here: lipid (BODIPY) channel AC50
# [17] = measured here: green reporter channel AC50, mouse Pmp22 promoter in mouse Schwann cells
compound,measurement,setting,value
C/C(=C\c1ccc(C(=O)O)cc1)c1ccc2c(c1)C(C)(C)CCC2(C)C,AC50,[1]; measured here: GFP channel,"35.5 µM [falling, single point]"
same,AC50,[1]; measured here: RFP channel,"25.1 µM [falling, partial curve]"
same,AC50,[2]; [10],"84.9 µM [falling, partial curve, poor fit]"
same,AC50,[3]; [11],"7.31 µM [falling, partial curve]"
same,AC50,[3]; [12],"0.00651 µM [rising, full curve, poor fit]"
same,viability change,[4],-8.84%
same,max response,[5],87.4%
C[C@]12C[C@H](O)C3[C@@H](CCC4=CC(=O)CC[C@@]43C)[C@@H]1CC[C@@H]2C(=O)CO (some centres not stated),AC50,[1]; measured here: GFP channel,"31.6 µM [rising, single point]"
same,max response,[6]; [13],54.2%
same,max response,[6]; [14],54.6%
NC(=O)c1cc[n+](CC2=C(C(=O)O)N3C(=O)[C@@H](NC(=O)[C@@H](c4ccccc4)S(=O)(=O)[O-])[C@H]3SC2)cc1,AC50,[1]; measured here: GFP channel,"12.6 µM [rising, single point]"
same,max response,[6]; [13],49.2%
same,max response,[6]; [14],48.9%
CCN1/C(=C/C(C)=O)Sc2ccc(OC)cc21,AC50,[1]; measured here: GFP channel,"14.1 µM [rising, partial curve, poor fit]"
same,AC50,[1]; measured here: RFP channel,"12.6 µM [rising, single point]"
same,AC50,[2]; [10],"67.5 µM [falling, partial curve]"
same,AC50,[3]; [11],"16.4 µM [falling, single point]"
CCCCCCCCCCCCCCCCCC(=O)NCC(COP(=O)([O-])OCC[N+](C)(C)C)OCC (configuration not stated),AC50,[1]; measured here: GFP channel,"7.08 µM [falling, partial curve]"
same,AC50,[1]; measured here: RFP channel,"6.31 µM [falling, full curve]"
same,AC50,[3]; [12],"23.1 µM [falling, partial curve]"
CC(C)(C)c1cc(/C=C(\C#N)C(N)=S)cc(C(C)(C)C)c1O,AC50,[7],"5.01 µM [rising, full curve]"
same,AC50,[1]; measured here: GFP channel,"2 µM [rising, partial curve, poor fit]"
same,max response,[6]; [13],-31.8%
same,AC50,[6]; [15],"4.47 µM [falling, full curve]"
same,AC50,[6]; [16],"4.47 µM [falling, full curve]"
same,max response,[6]; [14],-65.8%
same,AC50,[2]; [17],"33.8 µM [falling, partial curve]"
same,AC50,[2]; [10],"33.8 µM [falling, partial curve]"
same,AC50,[3]; [11],"10.3 µM [falling, single point]"
same,AC50,[3]; [12],"23.1 µM [falling, single point]"
same,AC50,[4],"9.2 µM [falling, partial curve, poor fit]"
same,viability change,[4],-35.9%
Cc1cc(N)c2ccccc2[n+]1CCCCCCCCCC[n+]1c(C)cc(N)c2ccccc21,AC50,[1]; measured here: GFP channel,"3.16 µM [falling, partial curve, poor fit]"
same,max response,[6]; [13],-24.3% and 38.2% and -69.5%
same,AC50,[6]; [15],"0.0282 µM [falling, full curve, poor fit]"
same,AC50,[6]; [16],"15.8 µM [falling, single point] and 25.1 nM [falling, full curve, poor fit]"
same,max response,[6]; [14],-66.3% and -80.9% and -79.5%
same,AC50,[2]; [17],"37.9 µM [falling, full curve]"
same,AC50,[2]; [10],"33.8 µM [falling, full curve]"
same,viability change,[4],-11.9%
same,IC50,[8],"3.43 µM [falling, full curve]"
CC(=O)OCC1=C(C(=O)O)N2C(=O)[C@@H](NC(=O)CSc3ccncc3)[C@H]2SC1,AC50,[1]; measured here: GFP channel,"11.2 µM [rising, partial curve, poor fit]"
same,max response,[6]; [13],61.7%
same,AC50,[6]; [15],"39.8 µM [rising, single point]"
same,AC50,[6]; [16],"35.5 µM [rising, partial curve, poor fit]"
same,max response,[6]; [14],65.4%
O=c1cc(N2CCOCC2)oc2c(-c3ccccc3)cccc12,AC50,[1]; measured here: GFP channel,"7.08 µM [falling, partial curve, poor fit]"
same,max response,[6]; [13],88.4% and 32.8%
same,AC50,[6]; [15],"3.55 µM [rising, full curve] and 11.2 µM [falling, partial curve, poor fit]"
same,AC50,[6]; [16],"10 µM [falling, partial curve, poor fit]"
same,max response,[6]; [14],120% and 32.9%
same,AC50,[2]; [17],"33.8 µM [falling, partial curve]"
same,AC50,[2]; [10],"12 µM [falling, partial curve]"
same,z-score,"[9]; TFE3-RCC UOK109 viability, measured here: UOK109 Z-AUC",-0.816
same,z-score,"[9]; TFE3-RCC viability, measured here: UOK124 Z-AUC",-1.77
same,z-score,"[9]; TFE3-RCC viability, measured here: UOK145 Z-AUC",0.153
same,AC50,"[9]; TFE3-RCC viability, measured here: UOK145 cell viability","18.7 µM [falling, partial curve]"
CC(C)(CO)Cc1cc(C(C)(C)C)c(O)c(C(C)(C)C)c1,AC50,[7],"12.6 µM [rising, partial curve]"
same,AC50,[1]; measured here: GFP channel,"35.5 µM [falling, single point]"
same,max response,[6]; [13],32.5%
same,AC50,[6]; [15],"5.62 µM [rising, full curve, poor fit]"
same,AC50,[6]; [16],"6.31 µM [rising, full curve, poor fit]"
same,max response,[6]; [14],39.2%
NC(=Nc1ccccc1)NC(=O)c1nc(Cl)c(N)nc1N,AC50,[1]; measured here: RFP channel,"10 µM [falling, partial curve, poor fit]"
same,max response,[6]; [13],-14.9%
same,AC50,[6]; [15],"4.47 µM [falling, full curve, poor fit]"
same,AC50,[6]; [16],"4.47 µM [falling, full curve, poor fit]"
same,max response,[6]; [14],-15.5%
same,AC50,[2]; [17],"84.9 µM [falling, single point]"
same,AC50,[2]; [10],"33.8 µM [falling, partial curve]"
same,AC50,[3]; [11],"16.4 µM [falling, partial curve]"
same,AC50,[3]; [12],"20.6 µM [falling, partial curve]"

# Part of the list above, bar-delimited:
compound | measurement | setting | value
CC(=O)OCC1=C(C(=O)O)N2C(=O)[C@@H](NC(=O)CSc3ccncc3)[C@H]2SC1 | AC50 | [6]; [16] | 35.5 µM [rising, partial curve, poor fit]
same | max response | [6]; [14] | 65.4%
O=c1cc(N2CCOCC2)oc2c(-c3ccccc3)cccc12 | AC50 | [1]; measured here: GFP channel | 7.08 µM [falling, partial curve, poor fit]
